From US7288256B1, “T cell epitopes of the major allergens from dermatophagoides (house dust mite)” (Merck Patent GmbH, priority 1991, dated 2007)
Entries after “also recorded” stand apart in the source; their conditions may differ. Part of at least one peptide drawing is inferred or uncertain, most often the ends. Some compounds share one wording; it may come from a single statement. Residues, ends and D or L forms follow the SMILES beside them.

Assays:
[1] = system: Der p I primed T cell lines; assay: Secondary T cell proliferation assay, T cell lines primed in vitro with Der p I (Examples V, VII, XI, XII); format: cell-based, human
[2] = system: T cell lines primed with purified native Der p I; assay: T cell epitope studies with modified peptides, T cell lines primed with Der p I (Example XIV, FIGS. 31a-b); format: cell-based, human; details: 18 patients
[3] = system: IgE; assay: IgE reactivity or histamine release of candidate peptides (data not shown); details: experiments to date
[4] = system: Secondary T cell cultures reactive with Der p I protein allergen; assay: Percentage of total Group I T cell reactivity and patient coverage of candidate peptides (Example XVII); format: cell-based, human; details: patient 1733; formulas (1) and (2)

Row | Compound | response of Der p I primed T cells to selected Der f I peptides ([1]; 30 positive experiments, FIG. 15a) | T cell response to peptide [2] | IgE reactivity or histamine release [3] | response of Der p I primed T cells to selected Der p I peptides ([1]; 33 positive experiments, FIG. 13) | estimated range of T cell reactivity, % of the total reactivity of the Der p I protein [4]
1 | CC(C)C[C@H](NC(=O)[C@H](Cc1ccc(O)cc1)NC(=O)[C@H](C)NC(=O)[C@H](CO)NC(=O)[C@H](CCC(=O)O)NC(=O)[C@@H](NC(=O)[C@H](C)NC(=O)[C@H](C)NC(=O)[C@@H](N)C(C)C)[C@@H](C)O)C(=O)N[C@@H](C)C(=O)N[C@@H](Cc1ccc(O)cc1)C(=O)N[C@@H](CCCNC(=N)N)C(=O)N[C@@H](CC(N)=O)C(=O)N[C@H](C(=O)N[C@@H](CO)C(=O)N[C@@H](CC(C)C)C(=O)N[C@@H](CC(=O)O)C(=O)N[C@@H](CC(C)C)C(=O)N[C@@H](CO)C(=O)N[C@@H](CCC(=O)O)C(=O)N[C@@H](CCC(N)=O)C(=O)N[C@@H](CCC(=O)O)C(=O)N[C@@H](CC(C)C)C(=O)N[C@H](C(=O)N[C@@H](CC(=O)O)C(=O)O)C(C)C)[C@@H](C)O [DF I-22.2] (H-VAATESAYLAYRNTSLDLSEQELVD-OH; N-terminus and C-terminus assumed) | respond significantly | positive responses | negative |  | 
2 | CC[C@H](C)[C@H](NC(=O)[C@H](CCC(=O)O)NC(=O)[C@H](C)NC(=O)[C@@H]1CCCN1C(=O)[C@H](C)NC(=O)[C@H](CC(N)=O)NC(=O)CNC(=O)[C@H](CC(N)=O)NC(=O)[C@@H](NC(=O)[C@@H](N)CO)[C@@H](C)CC)C(=O)N[C@@H](CC(=O)O)C(=O)N[C@@H](CC(C)C)C(=O)N[C@@H](CCCNC(=N)N)C(=O)N[C@@H](CCC(N)=O)C(=O)N[C@@H](CCSC)C(=O)N[C@@H](CCCNC(=N)N)C(=O)N[C@H](C(=O)N[C@H](C(=O)N[C@H](C(=O)N1CCC[C@H]1C(=O)N[C@H](C(=O)N[C@@H](CCCNC(=N)N)C(=O)N[C@@H](CCSC)C(=O)N[C@@H](CCC(N)=O)C(=O)O)[C@@H](C)CC)[C@@H](C)O)C(C)C)[C@@H](C)O [DP I-21.2] (H-SINGNAPAEIDLRQMRTVTPIRMQ-OH; N-terminus and C-terminus assumed) |  | positive response | negative | respond significantly | 
3 | CC[C@H](C)[C@H](NC(=O)CNC(=O)[C@H](CCC(=O)O)NC(=O)[C@@H](N)CC(=O)O)C(=O)N[C@@H](CCCCN)C(=O)N[C@@H](CC(=O)O)C(=O)N[C@@H](CC(C)C)C(=O)N[C@@H](CC(=O)O)C(=O)N[C@@H](C)C(=O)N[C@@H](Cc1ccccc1)C(=O)N[C@@H](CCCNC(=N)N)C(=O)N[C@@H](Cc1c[nH]cn1)C(=O)N[C@@H](Cc1ccc(O)cc1)C(=O)N[C@@H](CC(=O)O)C(=O)NCC(=O)N[C@@H](CCCNC(=N)N)C(=O)N[C@H](C(=O)N[C@H](C(=O)N[C@H](C(=O)N[C@@H](CCC(N)=O)C(=O)N[C@@H](CCCNC(=N)N)C(=O)N[C@@H](CC(=O)O)C(=O)N[C@@H](CC(N)=O)C(=O)NCC(=O)N[C@@H](Cc1ccc(O)cc1)C(=O)N[C@@H](CCC(=O)O)C(=O)O)[C@@H](C)CC)[C@@H](C)CC)[C@@H](C)O [DP I-26.6] (H-DEGIKDLDAFRHYDGRTIIQRDNGYE-OH; N-terminus and C-terminus assumed) |  | responded positively; also recorded: positive | negative |  | 12.3%-24%
